The target of assay [1] is hypoxia-inducible factor-1 alpha (rat (endogenous in tenocytes)) (UniProt O35800). Description: co-IP; lysate (RIPA buffer) of rat tenocytes transfected with pCDH-COX2 for 48 h; protein A + G beads with antibodies to COX2, HIF-1α or p53, 4°C, 4 h, then immunoblot; cells without TSA (the same pairs were also seen with 500 nM TSA, with COX2-HIF-1α and p300-HIF-1α decreased). (In general: Immunoblotting shows a protein as a band on a membrane.)

Sequences of proteins named here, by UniProt entry; tags and fusion partners are left off.
UniProt O35800: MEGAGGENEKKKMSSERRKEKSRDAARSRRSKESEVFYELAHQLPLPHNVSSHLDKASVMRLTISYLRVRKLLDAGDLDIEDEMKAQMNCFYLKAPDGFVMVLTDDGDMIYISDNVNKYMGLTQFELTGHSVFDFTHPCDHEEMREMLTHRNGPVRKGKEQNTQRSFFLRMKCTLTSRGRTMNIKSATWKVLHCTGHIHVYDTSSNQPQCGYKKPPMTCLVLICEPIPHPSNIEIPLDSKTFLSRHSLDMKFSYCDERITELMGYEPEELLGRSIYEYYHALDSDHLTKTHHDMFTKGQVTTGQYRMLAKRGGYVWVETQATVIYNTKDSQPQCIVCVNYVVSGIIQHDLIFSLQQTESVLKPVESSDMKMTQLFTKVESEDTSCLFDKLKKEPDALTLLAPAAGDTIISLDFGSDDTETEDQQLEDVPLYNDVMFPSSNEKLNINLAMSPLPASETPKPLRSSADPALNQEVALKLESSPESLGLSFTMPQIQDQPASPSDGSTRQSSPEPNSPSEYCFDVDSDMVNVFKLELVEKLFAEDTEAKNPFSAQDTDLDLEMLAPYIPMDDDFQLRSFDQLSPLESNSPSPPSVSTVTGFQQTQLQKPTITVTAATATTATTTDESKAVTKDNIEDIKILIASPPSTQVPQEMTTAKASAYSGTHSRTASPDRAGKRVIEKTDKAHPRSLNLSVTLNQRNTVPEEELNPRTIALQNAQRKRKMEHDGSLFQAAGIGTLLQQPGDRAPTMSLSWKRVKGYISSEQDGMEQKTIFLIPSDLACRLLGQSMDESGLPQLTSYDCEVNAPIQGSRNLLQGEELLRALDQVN
UniProt P10361: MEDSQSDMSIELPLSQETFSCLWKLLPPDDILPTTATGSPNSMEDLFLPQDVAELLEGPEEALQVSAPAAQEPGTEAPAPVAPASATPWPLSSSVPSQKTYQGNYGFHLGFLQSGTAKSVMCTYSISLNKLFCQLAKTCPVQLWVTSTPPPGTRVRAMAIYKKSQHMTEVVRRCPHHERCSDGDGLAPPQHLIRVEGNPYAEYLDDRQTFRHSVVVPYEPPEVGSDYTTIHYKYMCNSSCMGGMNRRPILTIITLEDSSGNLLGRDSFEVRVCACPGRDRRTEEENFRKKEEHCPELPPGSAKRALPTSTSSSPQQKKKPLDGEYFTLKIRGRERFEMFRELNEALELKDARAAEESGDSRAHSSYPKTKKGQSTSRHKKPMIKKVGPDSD

Assay [2] has as its target p53 (rat (endogenous in tenocytes)) (UniProt P10361). The description is as above.

Two molecules from PMC8371918 can be followed below.

These are yes or no findings as the source states them, for the method shown. Binding seen in cells or lysates may run through a third protein. Some results given as binding are weak or reduced against the parent protein; the word gives no strength.

Consider p53 (from UniProt P10361 1-391), for which the binding entry in assay [1] is given as “binds”.

B1: COX2 (protein, UniProt P35355 18-604)
chain: ANPCCSNPCQNRGECMSIGFDQYKCDCTRTGFYGENCTTPEFLTRIKLLLKPTPNTVHYILTHFKGVWNIVNNIPFLRNSIMRYVLTSRSHLIDSPPTYNVHYGYKSWEAFSNLSYYTRALPPVADDCPTPMGVKGNKELPDSKEVLEKVLLRREFIPDPQGTNMMFAFFAQHFTHQFFKTDQKRGPGFTRGLGHGVDLNHVYGETLDRQHKLRLFQDGKLKYQVIGGEVYPPTVKDTQVDMIYPPHVPEHLRFAVGQEVFGLVPGLMMYATIWLREHNRVCDILKQEHPEWDDERLFQTSRLILIGETIKIVIEDYVQHLSGYHFKLKFDPELLFNQQFQYQNRIASEFNTLYHWHPLLPDTFNIEDQEYTFKQFLYNNSILLEHGLAHFVESFTRQIAGRVAGGRNVPIAVQAVAKASIDQSREMKYQSLNEYRKRFSLKPYTSFEELTGEKEMAAELKALYHDIDAMELYPALLVEKPRPDAIFGETMVELGAPFSLKGLMGNPICSPQYWKPSTFGGEVGFRIINTASIQSLICNNVKGCPFASFNVQDPQPTKTATINASASHSRLDDINPTVLIKRRSTEL
B1: the binding result in assay [1] and in assay [2] was “binds” throughout.
